Data reported in article PMC2672617, “Abl Kinase Inhibits the Engulfment of Apopotic Cells in Caenorhabditis elegans” (PLoS Biology, 2009).
Read-outs that look alike come from different tables or passages of the source. No constants are given. Whether binding was seen depends on the method and setting. Binding seen in cells or lysates may run through a third protein. For some of these results: A result given as binding can be weak or reduced; the word gives no strength.

Chains of the proteins cited; added tags and fusions are not shown. Lines headed by an entry give the natural chain unless they say otherwise; changes in a name come on top.
UniProt Q10929: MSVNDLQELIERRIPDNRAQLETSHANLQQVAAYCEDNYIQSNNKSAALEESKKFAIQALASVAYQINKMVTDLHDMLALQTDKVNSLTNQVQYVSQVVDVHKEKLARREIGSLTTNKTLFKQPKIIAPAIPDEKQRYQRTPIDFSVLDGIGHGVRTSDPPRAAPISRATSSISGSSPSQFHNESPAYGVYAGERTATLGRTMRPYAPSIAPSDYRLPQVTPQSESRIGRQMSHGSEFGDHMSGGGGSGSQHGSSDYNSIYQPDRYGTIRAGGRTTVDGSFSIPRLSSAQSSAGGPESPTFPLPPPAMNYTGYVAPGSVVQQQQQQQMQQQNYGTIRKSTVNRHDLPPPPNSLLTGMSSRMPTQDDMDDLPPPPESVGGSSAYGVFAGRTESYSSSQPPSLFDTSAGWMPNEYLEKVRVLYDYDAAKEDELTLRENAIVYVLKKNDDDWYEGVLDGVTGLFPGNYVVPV
UniProt P08659: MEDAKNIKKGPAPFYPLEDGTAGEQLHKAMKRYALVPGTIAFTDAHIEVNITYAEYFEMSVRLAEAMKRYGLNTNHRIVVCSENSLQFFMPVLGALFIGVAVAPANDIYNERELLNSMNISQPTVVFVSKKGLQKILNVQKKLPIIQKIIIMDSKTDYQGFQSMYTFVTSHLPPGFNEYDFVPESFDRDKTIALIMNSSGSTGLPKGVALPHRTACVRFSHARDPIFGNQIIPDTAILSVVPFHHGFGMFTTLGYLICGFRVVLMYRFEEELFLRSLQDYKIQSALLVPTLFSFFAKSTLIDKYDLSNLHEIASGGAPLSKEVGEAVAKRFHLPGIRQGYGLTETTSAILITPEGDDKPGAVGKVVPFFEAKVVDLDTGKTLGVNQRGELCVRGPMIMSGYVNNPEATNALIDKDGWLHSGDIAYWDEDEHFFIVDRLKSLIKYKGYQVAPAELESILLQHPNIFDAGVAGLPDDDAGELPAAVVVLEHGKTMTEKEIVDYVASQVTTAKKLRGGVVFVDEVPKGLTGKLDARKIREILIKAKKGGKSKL

Experiments:
Assay in all cases: pull-down; GST, GST-ABI or GST-ABIΔ on glutathione beads incubated with 25 μl of a 100 μl 35S-labelled in vitro transcription/translation reaction; 2 h at 4 °C in PBB2 (25 mM HEPES pH 7.6, 150 mM NaCl, 5 mM MgCl2, 0.1 mM EDTA, 0.1% Tween-20, 0.25% BSA); washes with 300 and 250 mM NaCl; SDS-PAGE, autoradiography, phosphorimager quantitation; only the target purified
[1] = target: GST-ABI-1Δ (N-terminal GST fusion to the product of the abi-1(tm494) allele) (C. elegans) (UniProt Q10929)
[2] = target: GST-ABI-1Δ (N-terminal GST fusion to the product of the abi-1(tm494) allele) (C. elegans) (UniProt Q10929); remark: listed apart in the source
[3] = target: GST (glutathione-S-transferase alone)

| Molecule | binding [1] | binding [2] | binding [3] |
| --- | --- | --- | --- |
| Luciferase (control) (from UniProt P08659 1-550) (enzyme) | no binding |  |  |
| ABL-1(112–611), N-terminal fragment of C. elegans ABL-1 (domain or fragment, UniProt P03949 112-611, looked up, labeled with 35S in vitro, contains the SH3, SH2 and tyrosine kinase domains; Cloned in pDEST14 (Gateway) for expression in vitro; also called N-terminal half of ABL-1; source: in vitro translated (TNT T7 Quick Coupled Transcription/Translation system, Promega)) SSSSSAPLFVALYDFHGVGEEQLSLRKGDQVRILGYNKNNEWCEARLYSTRKNDASNQRRLGEIGWVPSNFIAPYNSLDKYTWYHGKISRSDSEAILGSGITGSFLVRESETSIGQYTISVRHDGRVFHYRINVDNTEKMFITQEVKFRTLGELVHHHSVHADGLICLLMYPASKKDKGRGLFSLSPNAPDEWELDRSEIIMHNKLGGGQYGDVYEGYWKRHDCTIAVKALKEDAMPLHEFLAEAAIMKDLHHKNLVRLLGVCTHEAPFYIITEFMCNGNLLEYLRRTDKSLLPPIILVQMASQIASGMSYLEARHFIHRDLAARNCLVSEHNIVKIADFGLARFMKEDTYTAHAGAKFPIKWTAPEGLAFNTFSSKSDVWAFGVLLWEIATYGMAPYPGVELSNVYGLLENGFRMDGPQGCPPSVYRLMLQCWNWSPSDRPRFRDIHFNLENLISSNSLNDEVQKQLKKNNDKKLESDKRRSNVRERSDSKSRHSSHHD |  | binds | binds weakly |
| ABL-1(606–1,224), C-terminal fragment of C. elegans ABL-1 (domain or fragment, UniProt P03949 606-1224, labeled with 35S in vitro) HSSHHDRDRDRESLHSRNSNPEIPNRSFIRTDDSVSFFNPSTTSKVTSFRAQGPPFPPPPQQNTKPKLLKSVLNSNARHASEEFERNEQDDVVPLAEKNVRKAVTRLGGTMPKGQRIDAYLDSMRRVDSWKESTDADNEGAGSSSLSRTVSNDSLDTLPLPDSMNSSTYVKMHPASGENVFLRQIRSKLKKRSETPELDHIDSDTADETTKSEKSPFGSLNKSSIKYPIKNAPEFSENHSRVSPVPVPPSRNASVSVRPDSKAEDSSDETTKDVGMWGPKHAVTRKIEIVKNDSYPNVEGELKAKIRNLRHVPKEESNTSSQEDLPLDATDNTNDSIIVIPRDEKAKVRQLVTQKVSPLQHHRPFSLQCPNNSTSSAISHSEHADSSETSSLSGVYEERMKPELPRKRSNGDTKVVPVTWIINGEKEPNGMARTKSLRDITSKFEQLGTASTIESKIEEAVPYREHALEKKGTSKRFSMLEGSNELKHVVPPRKNRNQDESGSIDEEPVSKDMIVSLLKVIQKEFVNLFNLASSEITDEKLQQFVIMADNVQKLHSTCSVYAEQISPHSKFRFKELLSQLEIYNRQIKFSHNPRAKPVDDKLKMAFQDCFDQIMRLVDR |  | no binding |  |
